Reference: the supplement of paper PMC10849652
Some of the results follow.

The chains behind the UniProt entries cited, without tags or fusion partners. Where a name states a change or a piece, a line headed by the entry shows the natural chain unless it says otherwise.
UniProt P54278: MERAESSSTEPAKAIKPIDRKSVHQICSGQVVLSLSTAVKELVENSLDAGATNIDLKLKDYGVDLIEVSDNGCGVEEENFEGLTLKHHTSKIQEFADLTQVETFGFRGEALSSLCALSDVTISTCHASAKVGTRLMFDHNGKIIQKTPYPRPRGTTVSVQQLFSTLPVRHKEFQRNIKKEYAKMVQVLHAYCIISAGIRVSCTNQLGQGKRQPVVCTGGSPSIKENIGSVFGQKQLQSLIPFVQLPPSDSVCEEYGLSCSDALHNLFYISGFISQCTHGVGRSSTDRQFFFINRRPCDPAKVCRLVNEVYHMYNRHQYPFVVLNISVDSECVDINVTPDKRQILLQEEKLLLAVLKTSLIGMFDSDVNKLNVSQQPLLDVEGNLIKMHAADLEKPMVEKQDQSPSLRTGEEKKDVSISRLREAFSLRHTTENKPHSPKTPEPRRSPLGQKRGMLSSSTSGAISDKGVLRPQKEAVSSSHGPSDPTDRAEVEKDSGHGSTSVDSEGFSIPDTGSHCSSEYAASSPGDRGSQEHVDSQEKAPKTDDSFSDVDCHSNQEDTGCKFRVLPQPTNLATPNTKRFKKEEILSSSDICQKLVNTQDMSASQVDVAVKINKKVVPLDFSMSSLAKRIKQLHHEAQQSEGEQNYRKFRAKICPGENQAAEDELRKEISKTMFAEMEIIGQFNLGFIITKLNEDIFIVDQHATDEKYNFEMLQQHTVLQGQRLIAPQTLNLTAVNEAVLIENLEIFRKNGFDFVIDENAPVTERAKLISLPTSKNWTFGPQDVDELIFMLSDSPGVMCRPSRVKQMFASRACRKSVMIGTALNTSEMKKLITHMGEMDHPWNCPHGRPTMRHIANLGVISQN
UniProt Q9BX97: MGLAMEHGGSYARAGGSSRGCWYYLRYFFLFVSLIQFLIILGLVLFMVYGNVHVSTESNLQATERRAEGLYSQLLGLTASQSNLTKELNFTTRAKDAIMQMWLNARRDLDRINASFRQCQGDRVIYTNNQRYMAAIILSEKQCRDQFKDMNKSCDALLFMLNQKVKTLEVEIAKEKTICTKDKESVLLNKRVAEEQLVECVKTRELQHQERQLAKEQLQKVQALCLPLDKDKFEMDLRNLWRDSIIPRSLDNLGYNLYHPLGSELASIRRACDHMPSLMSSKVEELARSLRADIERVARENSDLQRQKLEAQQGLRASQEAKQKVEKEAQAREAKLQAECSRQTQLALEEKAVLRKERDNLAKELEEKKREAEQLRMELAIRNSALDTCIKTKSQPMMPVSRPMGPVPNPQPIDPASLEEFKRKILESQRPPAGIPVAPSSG
UniProt O00469: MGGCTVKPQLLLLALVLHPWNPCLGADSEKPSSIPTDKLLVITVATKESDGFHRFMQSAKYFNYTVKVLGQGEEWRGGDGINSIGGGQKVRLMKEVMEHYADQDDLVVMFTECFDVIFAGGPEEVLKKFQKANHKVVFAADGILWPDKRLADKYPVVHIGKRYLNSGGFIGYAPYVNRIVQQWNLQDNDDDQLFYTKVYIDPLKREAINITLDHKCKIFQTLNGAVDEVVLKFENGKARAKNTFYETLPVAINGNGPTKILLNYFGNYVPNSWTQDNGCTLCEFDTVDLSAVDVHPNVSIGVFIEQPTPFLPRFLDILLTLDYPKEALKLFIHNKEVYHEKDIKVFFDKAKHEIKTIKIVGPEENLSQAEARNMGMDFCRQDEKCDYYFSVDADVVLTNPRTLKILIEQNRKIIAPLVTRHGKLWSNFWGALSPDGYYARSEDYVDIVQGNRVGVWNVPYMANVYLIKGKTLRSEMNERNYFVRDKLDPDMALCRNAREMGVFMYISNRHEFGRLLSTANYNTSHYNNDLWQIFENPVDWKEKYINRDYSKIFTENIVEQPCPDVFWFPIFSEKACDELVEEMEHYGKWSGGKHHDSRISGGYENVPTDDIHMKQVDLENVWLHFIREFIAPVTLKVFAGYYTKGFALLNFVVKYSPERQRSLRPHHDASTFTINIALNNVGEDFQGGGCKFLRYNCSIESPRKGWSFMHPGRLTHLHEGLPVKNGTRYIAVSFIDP
UniProt Q9Y4D7: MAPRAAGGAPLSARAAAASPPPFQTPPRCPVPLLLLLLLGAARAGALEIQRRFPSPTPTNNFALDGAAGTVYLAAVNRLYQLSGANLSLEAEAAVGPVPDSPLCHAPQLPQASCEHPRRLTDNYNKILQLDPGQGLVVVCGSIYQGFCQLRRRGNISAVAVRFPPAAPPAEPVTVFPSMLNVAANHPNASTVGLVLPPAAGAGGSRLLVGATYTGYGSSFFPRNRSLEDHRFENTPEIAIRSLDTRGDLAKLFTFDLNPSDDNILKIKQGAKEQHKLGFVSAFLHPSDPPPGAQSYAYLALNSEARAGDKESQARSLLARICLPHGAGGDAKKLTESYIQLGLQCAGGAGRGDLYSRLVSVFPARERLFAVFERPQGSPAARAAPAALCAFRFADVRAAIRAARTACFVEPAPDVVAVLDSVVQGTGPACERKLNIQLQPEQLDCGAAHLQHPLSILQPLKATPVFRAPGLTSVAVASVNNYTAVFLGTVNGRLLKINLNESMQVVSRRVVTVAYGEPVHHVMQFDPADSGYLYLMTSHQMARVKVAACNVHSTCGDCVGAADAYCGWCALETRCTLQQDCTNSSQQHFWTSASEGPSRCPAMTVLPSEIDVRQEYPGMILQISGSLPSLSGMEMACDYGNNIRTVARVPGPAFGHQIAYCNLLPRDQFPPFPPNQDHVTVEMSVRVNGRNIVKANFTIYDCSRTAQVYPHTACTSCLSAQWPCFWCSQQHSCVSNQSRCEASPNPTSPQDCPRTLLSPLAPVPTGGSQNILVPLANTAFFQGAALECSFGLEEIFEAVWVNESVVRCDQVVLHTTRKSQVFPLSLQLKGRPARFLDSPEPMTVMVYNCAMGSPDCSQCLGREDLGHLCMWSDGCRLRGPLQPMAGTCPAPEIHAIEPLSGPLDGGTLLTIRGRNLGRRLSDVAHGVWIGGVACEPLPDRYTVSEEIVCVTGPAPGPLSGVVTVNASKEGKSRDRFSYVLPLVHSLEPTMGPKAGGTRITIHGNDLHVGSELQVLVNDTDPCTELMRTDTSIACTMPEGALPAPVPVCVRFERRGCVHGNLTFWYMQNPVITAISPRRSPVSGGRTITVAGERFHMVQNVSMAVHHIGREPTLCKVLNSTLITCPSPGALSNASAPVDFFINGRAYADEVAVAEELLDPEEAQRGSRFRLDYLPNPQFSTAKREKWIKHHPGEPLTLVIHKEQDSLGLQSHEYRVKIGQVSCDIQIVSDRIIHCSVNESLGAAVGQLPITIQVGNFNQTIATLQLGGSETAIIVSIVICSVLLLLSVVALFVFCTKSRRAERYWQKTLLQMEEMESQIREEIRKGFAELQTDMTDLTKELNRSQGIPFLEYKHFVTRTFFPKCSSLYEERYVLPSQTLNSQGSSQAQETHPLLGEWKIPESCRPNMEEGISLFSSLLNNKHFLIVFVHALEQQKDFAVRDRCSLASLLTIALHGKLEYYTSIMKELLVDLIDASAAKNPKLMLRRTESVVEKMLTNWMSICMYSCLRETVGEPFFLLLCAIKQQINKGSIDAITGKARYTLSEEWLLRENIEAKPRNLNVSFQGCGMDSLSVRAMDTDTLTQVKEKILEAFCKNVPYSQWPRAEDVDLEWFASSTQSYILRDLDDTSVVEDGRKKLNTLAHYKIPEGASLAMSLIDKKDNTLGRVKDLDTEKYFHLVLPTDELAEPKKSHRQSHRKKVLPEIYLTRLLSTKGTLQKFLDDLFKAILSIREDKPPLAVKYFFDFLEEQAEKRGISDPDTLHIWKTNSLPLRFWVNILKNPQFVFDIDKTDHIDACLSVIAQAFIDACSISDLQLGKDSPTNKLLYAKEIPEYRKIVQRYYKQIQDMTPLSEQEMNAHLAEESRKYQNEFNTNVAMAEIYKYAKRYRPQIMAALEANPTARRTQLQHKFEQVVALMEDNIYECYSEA
UniProt Q8NEY8: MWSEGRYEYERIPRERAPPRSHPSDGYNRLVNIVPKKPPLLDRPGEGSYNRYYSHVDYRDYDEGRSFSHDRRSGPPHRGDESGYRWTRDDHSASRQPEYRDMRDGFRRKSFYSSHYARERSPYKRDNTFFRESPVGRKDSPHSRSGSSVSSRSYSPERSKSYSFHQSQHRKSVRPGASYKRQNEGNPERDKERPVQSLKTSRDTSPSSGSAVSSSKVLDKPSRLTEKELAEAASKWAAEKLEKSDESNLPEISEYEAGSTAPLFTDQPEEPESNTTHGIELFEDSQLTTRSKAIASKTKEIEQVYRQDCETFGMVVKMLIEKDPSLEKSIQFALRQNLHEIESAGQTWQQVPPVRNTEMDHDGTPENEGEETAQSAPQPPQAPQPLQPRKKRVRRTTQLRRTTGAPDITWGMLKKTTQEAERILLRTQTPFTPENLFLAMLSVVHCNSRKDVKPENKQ
UniProt Q15126: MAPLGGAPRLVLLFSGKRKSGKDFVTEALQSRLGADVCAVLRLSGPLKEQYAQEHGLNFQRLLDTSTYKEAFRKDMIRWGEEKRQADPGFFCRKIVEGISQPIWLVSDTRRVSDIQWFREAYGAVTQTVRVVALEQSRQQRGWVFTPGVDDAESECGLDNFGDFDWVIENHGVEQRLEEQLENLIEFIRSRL
POLG, A0A3B3IS91, UniProt A0A3B3IS91, whole entry, looked up: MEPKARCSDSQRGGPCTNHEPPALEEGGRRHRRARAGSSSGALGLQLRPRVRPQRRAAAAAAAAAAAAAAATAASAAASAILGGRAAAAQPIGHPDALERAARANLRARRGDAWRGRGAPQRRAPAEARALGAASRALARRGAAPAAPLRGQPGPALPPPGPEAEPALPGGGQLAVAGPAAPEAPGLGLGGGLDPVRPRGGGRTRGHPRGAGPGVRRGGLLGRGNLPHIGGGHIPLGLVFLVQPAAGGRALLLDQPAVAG
UniProt Q9HBL7: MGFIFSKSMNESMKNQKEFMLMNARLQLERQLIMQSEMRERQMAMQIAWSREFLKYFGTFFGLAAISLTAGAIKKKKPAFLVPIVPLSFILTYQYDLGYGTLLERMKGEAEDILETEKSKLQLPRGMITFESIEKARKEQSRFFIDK
UniProt Q9Y6A1: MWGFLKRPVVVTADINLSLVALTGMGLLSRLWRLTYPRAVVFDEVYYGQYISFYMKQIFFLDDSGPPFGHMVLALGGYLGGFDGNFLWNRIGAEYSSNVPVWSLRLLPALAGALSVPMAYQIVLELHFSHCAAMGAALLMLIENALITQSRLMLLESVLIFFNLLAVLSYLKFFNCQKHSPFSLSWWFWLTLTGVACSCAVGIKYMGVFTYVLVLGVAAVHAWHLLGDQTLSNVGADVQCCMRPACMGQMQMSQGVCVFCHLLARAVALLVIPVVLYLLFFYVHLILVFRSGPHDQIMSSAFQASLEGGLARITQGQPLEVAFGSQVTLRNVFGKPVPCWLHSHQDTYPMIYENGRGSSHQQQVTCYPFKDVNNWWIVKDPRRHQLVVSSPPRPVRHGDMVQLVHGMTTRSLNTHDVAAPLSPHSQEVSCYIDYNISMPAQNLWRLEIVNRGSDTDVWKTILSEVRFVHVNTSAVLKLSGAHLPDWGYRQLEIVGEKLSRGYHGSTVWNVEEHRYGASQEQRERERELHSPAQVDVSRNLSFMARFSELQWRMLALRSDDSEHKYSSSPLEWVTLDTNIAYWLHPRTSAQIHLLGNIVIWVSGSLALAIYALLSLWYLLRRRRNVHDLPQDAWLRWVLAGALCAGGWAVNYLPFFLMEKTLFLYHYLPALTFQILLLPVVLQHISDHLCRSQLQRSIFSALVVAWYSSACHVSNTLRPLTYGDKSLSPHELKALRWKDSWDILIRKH
UniProt P56282: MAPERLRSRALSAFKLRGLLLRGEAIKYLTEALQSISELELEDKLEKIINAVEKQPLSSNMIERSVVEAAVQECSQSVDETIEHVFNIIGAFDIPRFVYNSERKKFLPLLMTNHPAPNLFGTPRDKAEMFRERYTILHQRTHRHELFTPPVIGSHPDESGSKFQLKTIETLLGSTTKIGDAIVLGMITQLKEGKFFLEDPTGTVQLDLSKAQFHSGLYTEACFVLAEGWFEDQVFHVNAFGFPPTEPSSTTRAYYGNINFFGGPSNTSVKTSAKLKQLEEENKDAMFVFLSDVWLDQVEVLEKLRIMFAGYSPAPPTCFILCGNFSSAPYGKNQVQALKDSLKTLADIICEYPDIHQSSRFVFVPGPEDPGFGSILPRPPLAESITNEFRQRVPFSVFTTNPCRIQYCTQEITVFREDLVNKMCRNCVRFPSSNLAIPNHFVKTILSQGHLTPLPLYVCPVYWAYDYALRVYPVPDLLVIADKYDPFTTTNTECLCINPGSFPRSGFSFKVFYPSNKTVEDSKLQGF
UniProt Q9BT43: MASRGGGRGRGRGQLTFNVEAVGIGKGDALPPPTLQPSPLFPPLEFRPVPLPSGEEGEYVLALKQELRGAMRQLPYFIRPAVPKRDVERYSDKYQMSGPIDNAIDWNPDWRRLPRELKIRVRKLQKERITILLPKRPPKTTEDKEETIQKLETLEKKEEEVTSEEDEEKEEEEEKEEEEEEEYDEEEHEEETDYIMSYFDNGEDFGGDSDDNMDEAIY

Tests used:
Assay in all cases: log2 fold change, soluble protein after heating vs DMSO (PISA); higher = thermal stabilisation; K562 cells, 10 uM, 30 min; active = over 0.2 and 3.5 SD of the protein, either way, in both replicates (recomputed)
[1] = compound: CC1=C(C=C(C=C1)NC(=O)C2=CC(=CC=C2)C(C)(C)C#N)NC3=CC4=C(C=C3)N=CN(C4=O)C
Summary of the method: (§1)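 K562 cells at 2×10^6 cells/mL were treated with 10 μM compound for 30 min. Aliquots were heated for 3 min across 48°C-58°C, pooled, and extracted in PBS with 0.5% NP-40 at 4°C; soluble protein was the supernatant after 21,000xg for 90 min. Soluble protein was quantified by TMTpro 16plex LC-MS/MS with channel sums equalised, and reported as log2 fold change in thermal stability against DMSO controls, with values from duplicates.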

[2] = compound: CC1=C(C=C(C=C1)NC(=O)C2=CC(=CC=C2)N(C)C)NC(=O)C3=CC=C(C=C3)O
Summary of the method: as §1

[3] = compound: CC1=CC=C(C=C1)SC2=C3C=C(SC3=CN=C2)C(=O)N
Summary of the method: as §1

[4] = compound: CC1=NC(=CC=C1)C2=C(N=C(N2)C(C)(C)C)C3=CC4=NC=CN=C4C=C3
Summary of the method: as §1

[5] = compound: CCCCN(Cc1ccc(C(=O)NO)cc1)C(=O)Nc1ccccc1 [Nexturastat A]
Summary of the method: as §1

[6] = compound: CCCS(=O)(=O)Nc1ccc(F)c(C(=O)c2c[nH]c3ncc(-c4ccc(Cl)cc4)cc23)c1F [vemurafenib]
Summary of the method: as §1

[7] = compound: CCCS(=O)(=O)Nc1ccc(F)c(C(=O)c2c[nH]c3ncc(Cl)cc23)c1F
Summary of the method: as §1

[8] = compound: CCCc1cc(C)[nH]c(=O)c1CNC(=O)c1cc(-c2ccnc(N3CCN(C)CC3)c2)cc2c1cnn2C(C)C
Summary of the method: as §1

[9] = compound: CCN(CC)Cc1ccc2cc(COC(=O)Nc3ccc(C(=O)NO)cc3)ccc2c1 [givinostat]
Summary of the method: as §1

[10] = compound: CCN(CCCOc1ccc2c(Nc3cc(CC(=O)Nc4cccc(F)c4)[nH]n3)ncnc2c1)CCOP(=O)(O)O [barasertib]
Summary of the method: as §1

Measured: log2 fold change

PODXL2 (UniProt Q9NZ53)
inactive: [1] 0.144 | [2] -0.013 | [3] 0.032 | [4] -0.06 | [5] 0 | [6] -0.064 | [7] -0.038 | [8] -0.126 | [9] -0.002 | [10] -0.048

PLG (UniProt P00747)
inactive: [1] -0.071 | [3] 0.122 | [4] 0.095 | [6] -0.02 | [7] -0.046 | [9] -0.081 | [10] 0.04

POLR2M (UniProt Q6EEV4)
inactive: [1] 0.091 | [3] -0.062 | [4] 0.046 | [5] -0.403 | [6] 0.017 | [7] -0.066 | [8] -0.073 | [9] -0.105 | [10] -0.055

PMS2 (UniProt P54278)
inactive: [1] 0.319 | [2] 0.334 | [4] 0.039 | [5] -0.08 | [6] 0.229 | [9] 0.174

PPIC (UniProt P45877)
inactive: [1] -0.019 | [3] -0.074 | [4] 0.003 | [5] 0 | [7] -0.086 | [8] -0.099 | [9] 0.022 | [10] 0.006

PNKD isoform 3 (UniProt Q8N490)
inactive: [1] -0.025 | [2] 0.021 | [3] 0.13 | [4] -0.016 | [5] 0.15 | [6] -0.007 | [7] 0.032 | [8] -0.05 | [9] 0.135 | [10] -0.067

POLR2L (UniProt P62875)
inactive: [1] -0.06 | [2] 0.17 | [3] 0.021 | [5] -0.043 | [6] -0.117 | [7] 0.067 | [8] 0.038 | [9] 0.067

PLVAP (UniProt Q9BX97)
inactive: [1] 0.275 | [2] -0.063 | [3] 0.124 | [5] -0.474 | [6] 0.22 | [7] -0.031 | [8] 0.097 | [9] 0.032 | [10] 0.125

POLE (UniProt Q07864)
inactive: [2] -0.126 | [10] 0.053

PLEKHO2 (UniProt Q8TD55)
inactive: [2] -0.056 | [3] 0.106 | [4] 0.052 | [6] 0.063 | [7] -0.078 | [8] -0.007 | [9] 0.071 | [10] 0.006

POLR2E (UniProt P19388)
inactive: [2] -0.094 | [3] 0 | [4] -0.091 | [5] 0.005 | [6] 0.031 | [7] 0.018 | [8] 0.099 | [9] -0.007 | [10] -0.03

PLOD2 isoform 2 (UniProt O00469)
inactive: [3] -0.135 | [4] 0.07 | [7] -0.161 | [8] -0.192

PLS3 (UniProt H7C4N2)
inactive: [1] -0.09 | [4] -0.127 | [5] 0.065

PLXNA3 (UniProt P51805)
inactive: [1] -0.051 | [4] 0.19 | [5] 0.315 | [8] -0.077 | [10] -0.27

PLXND1 (UniProt Q9Y4D7)
inactive: [2] -0.153 | [4] 0.095 | [6] -0.031 | [8] 0.207 | [10] 0.078

PPHLN1 (UniProt Q8NEY8)
inactive: [2] 0.064 | [3] -0.055 | [4] 0.022 | [6] -0.06 | [7] -0.091 | [8] -0.092 | [9] 0.032 | [10] -0.033

PPFIA3 (UniProt O75145)
inactive: [5] 0.017

PMVK (UniProt Q15126)
inactive: [1] 0.006 | [5] 0.085 | [6] -0.041 | [8] 0.016 | [9] -0.068 | [10] 0.014

PORCN (UniProt Q9H237)
inactive: [2] 0.133 | [6] -0.08 | [9] -0.166

PPM1B isoform 2 (UniProt O75688)
inactive: [8] -0.095 | [10] -0.053

PNPLA6 (UniProt Q8IY17)
inactive: [2] -0.247 | [3] 0.099 | [4] -0.017 | [5] 0.364 | [6] -0.045 | [7] 0.027 | [8] 0.165 | [9] 0.178 | [10] 0.116

Quoted at random: two entries already listed, in no set order.
PNPLA6 (UniProt Q8IY17)
inactive: [2] -0.247 | [3] 0.099 | [4] -0.017 | [5] 0.364 | [6] -0.045 | [7] 0.027 | [8] 0.165 | [9] 0.178 | [10] 0.116

PMVK (UniProt Q15126)
inactive: [1] 0.006 | [5] 0.085 | [6] -0.041 | [8] 0.016 | [9] -0.068 | [10] 0.014

Carrying on:

POLD4 (UniProt Q9HCU8)
inactive: [2] -0.033 | [3] 0.034 | [4] -0.011 | [7] -0.088 | [8] -0.029 | [10] 0.088

POLQ (UniProt O75417)
inactive: [2] -0.106 | [8] -0.155 | [10] 0.015

POLR1E isoform 1 (UniProt Q9GZS1)
inactive: [2] -0.086 | [3] 0.027 | [6] 0.038 | [7] -0.104 | [8] 0.266

PLSCR3 (UniProt Q9NRY6)
inactive: [9] 0.011

POLRMT (UniProt O00411)
inactive: [1] 0.074 | [4] -0.222 | [5] 0.21 | [6] 0.083

PPIA isoform 2 (UniProt P62937)
inactive: [2] 0.035 | [3] -0.084 | [5] -0.085 | [6] 0 | [7] -0.133 | [8] -0.296 | [10] 0.093

PLEKHJ1 (UniProt Q9NW61)
inactive: [2] 0.065 | [3] 0.042 | [5] -0.109 | [7] 0.174

POLG, A0A3B3IS91
inactive: [8] 0.297 | [9] 0.07

POLR2J (UniProt P52435)
inactive: [5] -0.002 | [8] 0.037 | [9] 0.053 | [10] -0.032

PLGRKT (UniProt Q9HBL7)
inactive: [1] -0.001 | [5] -0.096 | [8] -0.466 | [9] 0.024 | [10] 0.035

POMT1 (UniProt Q9Y6A1)
inactive: [4] -0.105 | [5] 0.113 | [6] -0.034 | [8] 0.021 | [9] 0.032

POMT2 (UniProt Q9UKY4)
inactive: [2] 0.017 | [3] -0.099 | [4] -0.01 | [6] 0.172 | [7] 0 | [10] 0.133

POLE2 (UniProt P56282)
inactive: [2] 0.074 | [4] -0.108

PMS2CL (UniProt Q68D20)
inactive: [2] 0.089 | [5] -0.109 | [8] 0.129

POC1A (UniProt Q8NBT0)
inactive: [4] -0.007 | [6] -0.086 | [8] 0.084 | [10] -0.067

POF1B isoform 1 (UniProt Q8WVV4)
inactive: [6] 0.104 | [8] 0.13 | [10] 0.44

POLR3GL (UniProt Q9BT43)
inactive: [1] -0.254 | [8] -0.293 | [10] 0.125

PLPPR3 isoform 3 (UniProt Q6T4P5)
inactive: [2] -0.219 | [5] 0.078

PPIG (UniProt Q13427)
inactive: [2] 0.011 | [3] 0.352 | [4] 0.027 | [7] -0.152 | [8] 0.025 | [10] 0.288

PLXNB1 (UniProt O43157)
inactive: [1] 0.057 | [5] -0.084
